One molecule from PMC6092110 can be followed below.

Results are given in words; binding and its absence hold for the method and conditions named. Binding seen in cells or lysates may run through a third protein.

This test addresses Dkk3-His tagged, Q9QUN9. The experiment in a line: pull-down; His-tag pull-down (MagneHis Protein Purification System, nickel magnetic beads); Sca-1+ cells treated with Dkk3-His tagged, Dkk3-His pulled down from the cell lysate, receptors detected by immunoblot; only the target purified. The following applies: remark: other sources report otherwise.

B1: Kremen1, endogenous in Sca-1+ VPCs, Q99N43 20-473 (receptor)
chain: ARPAPGPRSGPECFTANGADYRGTQSWTALQGGKPCLFWNETFQHPYNTLKYPNGEGGLGEHNYCRNPDGDVSPWCYVAEHEDGVYWKYCEIPACQMPGNLGCYKDHGNPPPLTGTSKTSNKLTIQTCISFCRSQRFKFAGMESGYACFCGNNPDYWKHGEAASTECNSVCFGDHTQPCGGDGRIILFDTLVGACGGNYSAMAAVVYSPDFPDTYATGRVCYWTIRVPGASRIHFNFTLFDIRDSADMVELLDGYTHRVLVRLSGRSRPPLSFNVSLDFVILYFFSDRINQAQGFAVLYQATKEEPPQERPAVNQTLAEVITEQANLSVSAAHSSKVLYVITPSPSHPPQTAPGSHSWAPSVGANSHRVEGWTVYGLATLLILTVTAVVAKILLHVTFKSHRVPASGDLRDCRQPGASGDIWTIFYEPSTTISIFKKKLKGQSQQDDRNPLVSD
For the molecule B1, the binding result is on record as “no binding”.
